The supplement of paper PMC8728848
The list shows a part of the results.

Legend:
Assay in all cases: glycan array binding signal (z-score within array); higher = stronger binding
Conditions in all cases: glycan notation: IUPAC condensed, linker removed
[1] = molecular target: Neu5Ac(a2-6)GlcNAc(b1-4)GlcNAc(b1-4)GlcNAc
Outline: (§1)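 Glycan array data were curated from 3228 arrays in the Consortium for Functional Glycomics database and kept only where the protein sequence was available. Glycan names were converted to IUPAC-condensed notation, and columns mapping to the same glycan were averaged. The binding signal is a within-array Z-score, averaged across arrays of the same protein sequence at different concentrations or buffers and across linkers. Negative Z-scores can be read as non-binding.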

Neu5Ac(a2-8)Neu5Ac = molecular target: Neu5Ac(a2-8)Neu5Ac
Outline: as §1

[2] = molecular target: Neu5Ac(a2-8)Neu5Ac(a2-3)Gal(b1-3)GalNAc(b1-4)[Neu5Ac(a2-3)]Gal(b1-4)Glc
Outline: as §1

[3] = molecular target: Neu5Ac(a2-8)Neu5Ac(a2-3)Gal(b1-3)GalNAc(b1-4)[Neu5Ac(a2-8)Neu5Ac(a2-3)]Gal(b1-4)Glc
Outline: as §1

[4] = molecular target: Neu5Ac(a2-8)Neu5Ac(a2-3)Gal(b1-4)Glc
Outline: as §1

[5] = molecular target: Neu5Ac(a2-8)Neu5Ac(a2-3)Gal(b1-4)GlcNAc
Outline: as §1

[6] = molecular target: Neu5Ac(a2-8)Neu5Ac(a2-3)[Gal(b1-3)GalNAc(b1-4)]Gal(b1-4)Glc
Outline: as §1

[7] = molecular target: Neu5Ac(a2-8)Neu5Ac(a2-3)[GalNAc(b1-4)]Gal(b1-4)Glc
Outline: as §1

[8] = molecular target: Neu5Ac(a2-8)Neu5Ac(a2-8)Neu5Ac
Outline: as §1

[9] = molecular target: Neu5Ac(a2-8)Neu5Ac(a2-8)Neu5Ac(a2-3)Gal(b1-4)Glc
Outline: as §1

[10] = molecular target: Neu5Ac(a2-8)Neu5Ac(a2-8)Neu5Ac(a2-3)[Gal(b1-3)GalNAc(b1-4)]Gal(b1-4)Glc
Outline: as §1

[11] = molecular target: Neu5Ac(a2-8)Neu5Ac(a2-8)Neu5Ac(a2-3)[GalNAc(b1-4)]Gal(b1-4)Glc
Outline: as §1

[12] = molecular target: Neu5Ac(a2-8)Neu5Ac(a2-8)Neu5Ac(a2-8)Neu5Ac(a2-3)[GalNAc(b1-4)]Gal(b1-4)Glc
Outline: as §1

[13] = molecular target: Neu5Ac(a2-8)Neu5Gc(a2-3)Gal(b1-4)GlcNAc
Outline: as §1

[14] = molecular target: Neu5Ac(b2-6)Gal(b1-4)GlcNAc
Outline: as §1

Neu5Ac(b2-6)GalNAc = molecular target: Neu5Ac(b2-6)GalNAc
Outline: as §1

[15] = molecular target: Neu5Ac9Ac(a2-3)Gal(b1-3)GlcNAc
Outline: as §1

[16] = molecular target: Neu5Ac9Ac(a2-3)Gal(b1-4)GlcNAc
Outline: as §1

[17] = molecular target: Neu5Ac9Ac(a2-6)Gal(b1-4)GlcNAc
Outline: as §1

[18] = molecular target: Neu5Gc(a2-3)Gal(b1-3)GlcNAc
Outline: as §1

[19] = molecular target: Neu5Gc(a2-3)Gal(b1-3)[Fuc(a1-4)]GlcNAc
Outline: as §1

Neu5Gc(a2-3)Gal(b1-4)Glc = molecular target: Neu5Gc(a2-3)Gal(b1-4)Glc
Outline: as §1

[20] = molecular target: Neu5Gc(a2-3)Gal(b1-4)GlcNAc
Outline: as §1

[21] = molecular target: Neu5Gc(a2-3)Gal(b1-4)GlcNAc(b1-3)Gal(b1-4)GlcNAc(b1-2)Man(a1-3)[Neu5Gc(a2-3)Gal(b1-4)GlcNAc(b1-3)Gal(b1-4)GlcNAc(b1-2)Man(a1-6)]Man(b1-4)GlcNAc(b1-4)GlcNAc
Outline: as §1

[22] = molecular target: Neu5Gc(a2-3)Gal(b1-4)[Fuc(a1-3)]GlcNAc
Outline: as §1

[23] = molecular target: Neu5Gc(a2-6)Gal(b1-4)GlcNAc
Outline: as §1

Neu5Gc(a2-6)GalNAc = molecular target: Neu5Gc(a2-6)GalNAc
Outline: as §1

[24] = molecular target: Neu5Gc(a2-8)Neu5Ac(a2-3)Gal(b1-4)GlcNAc
Outline: as §1

[25] = molecular target: Neu5Gc(a2-8)Neu5Gc(a2-3)Gal(b1-4)GlcNAc
Outline: as §1

[26] = molecular target: Neu5Gc(a2-8)Neu5Gc(a2-3)Gal(b1-4)GlcNAc(b1-3)Gal(b1-4)GlcNAc
Outline: as §1

[27] = molecular target: Neu5Gc(a2-8)Neu5Gc(a2-6)Gal(b1-4)GlcNAc
Outline: as §1

[28] = molecular target: Neu5Gc(b2-6)Gal(b1-4)GlcNAc
Outline: as §1

B1: Awp3 (Candida glabrata), B4UN32 (protein)
chain: MISFVTLLAILGLLSISWADQTVRSVAGDQRVTDPVIVGDNSILDYYGGSNYDFSNNFEIGRGTLYIGKESYFSSFQSAPTDVPNSFHLLIKNTNNLQNNGQFIIENIKRHANQCSNSSIQVFPINFQNDGEFEIISGGVEGRCCLPTSVIAPQNFLNNGKFYYKVLTDTGSIYSGSCMQNVDIGASTTTTVNNNLWEFTGSINAQINGAVSGAAQINLDGSNMFVNANTFSGQVVNLINGGSFLQTSDPLSNIVVINGLGTSDTGVTSIAVKGKGKSFTYNPSSGIVKLTTVEGKTYAYQIGCGYNTKKFITNNDSGASYESADNFFVLTYSEPYSPQTCQLENSSIFSSNFISTSTSSSSSSSSASSLPSSMSSSLPSSLSSSLSSSLSSSMSSSMSSLFIIPPPYTTTRSSGSSIIDTEIVSFYSTTDSPGHTITGTTTTTLYGPHTHSSVSTPSSSSESSTTSNSSIESSSLPHTSVSSTPESSITPSSNTISSSPTSDFSSVQSSSIMESSSVVASSSVINSSSIVDSSSSSASSLPSSMSSSLSSSMSSSLPSSMSSSLSSSLSSSLSSSMSSSMSSLFIIPPPYTTTRSSGSSIIDTEIVSFYSTTDSPGHTITGTTTTTLYGPHTHSSVSTPSSSSESSTTSNSSIESSSLPHTSVSSTPESSITPSSNTISSSPTSDFSSVQSSSIMESSSVVASSSVINSSSIVDSSSSSASSLPSSMPSSLPSSMSSSLSSSMSSSLSSSLSSSLSSSMSSSMSSLFIIPPPYTTTRSSGSSIIDTEIVSFYSTTDSPGHTITGTTTTTLYGPHTHSSVSTPSSSSESSTTSNSSIESSSLPHTSVSSTPESSITPSSNTISSSPTSDFSSVQSSSIMESSSVVASSSATQSSSVINSSSIVDSSSSSASSLPSSMPSSLPSSLSSSLSSSLSSSMSSSMSSLFIIPPPYTTTRSSGSSIIDTEIVSFYSTTDSPGHTITGTTTTTLYESSIYSSSSSTIQESELSNTSRTTMTSNSSVSISSTSSRSSFSNTKSSTIVISQSASLPDSKTDIILSTSSNIGYSSRSLLSDLGTSISDSDIHHSVLHSTESYSSNESGTNPFTSIASLSNFIPESSSHTSTALGSENSVISSDILTTMSHPVATNSGDKPTTPKRSEQVSTTMTSSGPTPDTSSFDTDGMSAYSRPEFTTNSLEVNKSSTSQLGNNKQTFSNLQLESTRPHSENEVDNNTRLLQSIQQSSTYGTNNVNPLSPTGSISIPLTEDGQGDNNNWNSPATNDLCTQISFNLTATTITVTDRITITDSIHDISSEVITSYIYQTIVDQKTVTQTVDGKSLANKMSSIPKPSSRSLIQPQPPVAIELQEGAASTSRVSLVSLFISIILVLL
[1]
  glycan array binding signal (z-score): 2.42
Neu5Ac(a2-8)Neu5Ac
  glycan array binding signal (z-score): -0.366
[2]
  glycan array binding signal (z-score): -0.587
[3]
  glycan array binding signal (z-score): 1.14
[4]
  glycan array binding signal (z-score): -0.509
[5]
  glycan array binding signal (z-score): -1.76
[6]
  glycan array binding signal (z-score): -1.1
[7]
  glycan array binding signal (z-score): 1
[8]
  glycan array binding signal (z-score): 0.259
[9]
  glycan array binding signal (z-score): -0.433
[10]
  glycan array binding signal (z-score): -1.34
[11]
  glycan array binding signal (z-score): -0.558
[12]
  glycan array binding signal (z-score): 1.87
[13]
  glycan array binding signal (z-score): -0.294
[14]
  glycan array binding signal (z-score): 0.404
Neu5Ac(b2-6)GalNAc
  glycan array binding signal (z-score): 0.885
[15]
  glycan array binding signal (z-score): 0.617
[16]
  glycan array binding signal (z-score): -0.226
[17]
  glycan array binding signal (z-score): 0.167
[18]
  glycan array binding signal (z-score): -0.401
[19]
  glycan array binding signal (z-score): -0.441
Neu5Gc(a2-3)Gal(b1-4)Glc
  glycan array binding signal (z-score): -0.678
[20]
  glycan array binding signal (z-score): 0.694
[21]
  glycan array binding signal (z-score): 0.149
[22]
  glycan array binding signal (z-score): 0.932
[23]
  glycan array binding signal (z-score): 1.13
Neu5Gc(a2-6)GalNAc
  glycan array binding signal (z-score): -0.186
[24]
  glycan array binding signal (z-score): -0.196
[25]
  glycan array binding signal (z-score): 0.721
[26]
  glycan array binding signal (z-score): -0.951
[27]
  glycan array binding signal (z-score): -0.772
[28]
  glycan array binding signal (z-score): -0.832
